Some of the results follow.
biological target: T1, OsSMF1 (Oryza sativa, UniProt Q6ZLB0 1-436); assay: protein-binding microarray (RPBM); PBS, 2% BSA, 51.3 ng/ul salmon testes DNA, 50 uM zinc acetate, 200 nM TF, 25 C, 1 h; high values mean tight binding; details: protein: recombinant; tags: N-terminal polyhistidine and DsRed monomer fusion (pET32a); chain copies: 2; label: CyDye5-dUTP incorporated in the synthesized complementary strand; 3' TTTTT single-stranded linker to array surface; dsDNA, one strand shown
T1 sequence: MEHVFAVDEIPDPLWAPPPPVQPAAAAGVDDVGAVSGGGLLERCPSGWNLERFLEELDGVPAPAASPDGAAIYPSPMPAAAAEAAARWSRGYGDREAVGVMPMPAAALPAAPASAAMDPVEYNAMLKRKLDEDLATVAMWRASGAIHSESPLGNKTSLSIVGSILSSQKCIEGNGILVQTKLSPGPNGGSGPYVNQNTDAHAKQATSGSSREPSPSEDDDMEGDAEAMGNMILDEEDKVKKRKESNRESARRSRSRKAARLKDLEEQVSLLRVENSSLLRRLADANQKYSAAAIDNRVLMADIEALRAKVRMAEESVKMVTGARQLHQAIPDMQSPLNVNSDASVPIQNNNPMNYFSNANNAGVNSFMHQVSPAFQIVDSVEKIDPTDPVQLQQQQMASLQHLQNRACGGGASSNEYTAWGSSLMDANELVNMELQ
Outline: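 For the binding signal, per-feature fluorescence intensity was read in arbitrary units on an Axon 4000B scanner. Before scanning, a 2% BSA-blocked custom Agilent array made double-stranded with Cy5-dUTP was washed after 1 h at 25 °C with 200 nM protein and 50 µM zinc acetate. The proteins were Ni–NTA-purified transcription factors with N-terminal polyhistidine and DsRed fusions, expressed in E. coli BL21-CodonPlus.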

Point of comparison: “ATTGATCACTGCAAAGTGGGCCCCACCTGTCAGCTTCCATCGGAGTCACCTAGTGCAG”, binding signal 5590 fluorescence intensity (a.u.). Against it:
- GGAGACCGCGGAGTGATGACTGGTGAGGCGGCGATGTCCACGGAGTCACCTAGTGCAG — lower, 3310 fluorescence intensity (a.u.)
- CTCTCCGAGTCACTCTCCACCGATCCCAGGGTTCTTCTACCGGAGTCACCTAGTGCAG — lower, 3950 fluorescence intensity (a.u.)
- GGAAGGGAGAGAAGAGGGGTGCTGACGTGGACACCCTGACCGGAGTCACCTAGTGCAG — higher, 23400 fluorescence intensity (a.u.)
- AACGGCCAAGTCCCACCTCAGCGCCAGGTGGGCTGGCGCTCGGAGTCACCTAGTGCAG — lower, 4320 fluorescence intensity (a.u.)
- CTGCAATTTTGTAAGAAATGAGTTGTAATGTTGTTTCCTGCGGAGTCACCTAGTGCAG — lower, 4120 fluorescence intensity (a.u.)
- CAGTTGATGATACACGTGTACGCACTAGTGTGACTTGCAACGGAGTCACCTAGTGCAG — higher, 8950 fluorescence intensity (a.u.)
- AGAAGTACGGAGTAGAAATACTACCTGTCACTGCTAAGTGCGGAGTCACCTAGTGCAG — lower, 3390 fluorescence intensity (a.u.)
- AATCACCAAAACTTTCCTGTCGGTCATCAATCTCATCAGCCGGAGTCACCTAGTGCAG — lower, 3440 fluorescence intensity (a.u.)
- TGTTATTTTACTCATGCTTGCTGATGTAACCTCAGTTATCCGGAGTCACCTAGTGCAG — lower, 4660 fluorescence intensity (a.u.)
- TACTCACTCCTGCACGTCGGGTAAATTACAGCTAAATATACGGAGTCACCTAGTGCAG — higher, 13100 fluorescence intensity (a.u.)
- TTTGAACATTTCGACGTGACTCGATATCAATTTCCGAGAGCGGAGTCACCTAGTGCAG — lower, 3400 fluorescence intensity (a.u.)
- TAATTTGATGGATTATTGTCACTGACATCATCACCAGCACCGGAGTCACCTAGTGCAG — higher, 5860 fluorescence intensity (a.u.)
- CTTCTCCAAGGGACCAGGAAACTGACGCTACAGCTTTGCCCGGAGTCACCTAGTGCAG — lower, 3900 fluorescence intensity (a.u.)
- TTTTGGGCTTGCTCGTATCCTTGCCAAGTCTGGTGAGTCGCGGAGTCACCTAGTGCAG — lower, 3950 fluorescence intensity (a.u.)
- CCCATAACTGAATTGTTAATTTTGTCACGCGAGCAACGCACGGAGTCACCTAGTGCAG — higher, 19300 fluorescence intensity (a.u.)
- GTGATGACGTGGCACGCTGACATGTGGGGTCCCACGTGCCCGGAGTCACCTAGTGCAG — higher, 19000 fluorescence intensity (a.u.)
- CCTTGCAATCGATGTAATGCGGTGACGTGGCACACAGTAGCGGAGTCACCTAGTGCAG — higher, 25500 fluorescence intensity (a.u.)
- CGGATTTAGTATGTTTTACGTGGCAAAATGGTCTCCTAGACGGAGTCACCTAGTGCAG — lower, 5470 fluorescence intensity (a.u.)
- GCGCCTTGCCTGGCGAGGTTGCGGTGTCCGACAGCGAGTCCGGAGTCACCTAGTGCAG — lower, 3890 fluorescence intensity (a.u.)
- CCTCAACCGTGACTCAGTTATTCAGTTCGACACCCAGCCGCGGAGTCACCTAGTGCAG — higher, 7330 fluorescence intensity (a.u.)
- CCTCTCGTCGCCGACGTGGACTCACCCGACGCCGCGAGCCCGGAGTCACCTAGTGCAG — higher, 9630 fluorescence intensity (a.u.)
- AATTTCTGTTGCACCATGACGTGGAAAGTAAGTGTATGTGCGGAGTCACCTAGTGCAG — higher, 22200 fluorescence intensity (a.u.)
- TAATTCAATTTGCTGCTGACTATTAGCCCTTGTCTGCAAGCGGAGTCACCTAGTGCAG — lower, 4450 fluorescence intensity (a.u.)
- GTGGGAGGGAGGGCGGCGAGCTGCGCGGCGAACCTCGAGCCGGAGTCACCTAGTGCAG — lower, 3830 fluorescence intensity (a.u.)
- TCCGGAGGGGTGACGTGGCGCGAGGAGATCGGCGTGGCATCGGAGTCACCTAGTGCAG — higher, 23500 fluorescence intensity (a.u.)
- ACTGCAGATTTGCAGAGTAGCAAGCACCACATGACTCACACGGAGTCACCTAGTGCAG — higher, 7060 fluorescence intensity (a.u.)
- AGTTCTAGCAAAATTCTTGTTTGGCATGGCTCCACGTCTGCGGAGTCACCTAGTGCAG — lower, 5430 fluorescence intensity (a.u.)
- TTGTTAGTGGGGTCCTCCGCGTCGCTCTCGCGCGTGCGGCCGGAGTCACCTAGTGCAG — lower, 3330 fluorescence intensity (a.u.)
- ACAGACAGCCTTCACGTCGTCTACACGTCGACGCCTCAGCCGGAGTCACCTAGTGCAG — higher, 8550 fluorescence intensity (a.u.)
- ATTTGCAACATAATGCCACCACCAGAATGGACACATCAACCGGAGTCACCTAGTGCAG — lower, 3160 fluorescence intensity (a.u.)
- GCCACTGCTTTTAACCATCTCATAATCCCATGTGTACATGCGGAGTCACCTAGTGCAG — lower, 3490 fluorescence intensity (a.u.)
- CAGCGAATCCATTGCATTGAGATTTCGATTACCAGTATGACGGAGTCACCTAGTGCAG — higher, 19200 fluorescence intensity (a.u.)
- GATGATGCCTTTGTTCGTCGTCGTCGTCGGCGATGGCTGTCGGAGTCACCTAGTGCAG — lower, 3270 fluorescence intensity (a.u.)
- ACATTCTTGTTGCAAGTAATTTACAGTCATTGACTGTTTACGGAGTCACCTAGTGCAG — lower, 4250 fluorescence intensity (a.u.)
- GACAGTGACCCATCAATCAATGCACAAGCAGCAGTGACGTCGGAGTCACCTAGTGCAG — lower, 3400 fluorescence intensity (a.u.)
- CGTCGATTGGCGCCGCATGGCCCGCGTATGCCACACCTGGCGGAGTCACCTAGTGCAG — lower, 3700 fluorescence intensity (a.u.)
- AGACCATTAAGGCCTATCCACGTGGTGCCCCAAGAAGGATCGGAGTCACCTAGTGCAG — lower, 5410 fluorescence intensity (a.u.)
- GTCGGTGGTGAGGTGGCGTGTTGTGTGGCGCAGATGTGAGCGGAGTCACCTAGTGCAG — higher, 10100 fluorescence intensity (a.u.)
- CGATTTATGTGAACGGCATGCATGCATCATCATCGTCCTACGGAGTCACCTAGTGCAG — lower, 3860 fluorescence intensity (a.u.)
- ATCAAACAAGAGAGCAATAACCATGCGAGGTGATGTGGATCGGAGTCACCTAGTGCAG — lower, 5270 fluorescence intensity (a.u.)
- ATTATACGTGACAATGATATGTGGGGCTTCAATGACACATCGGAGTCACCTAGTGCAG — lower, 4540 fluorescence intensity (a.u.)
- GTATTGATGTTCTTACCATAAAAGTAACTCCATGAAAGAACGGAGTCACCTAGTGCAG — higher, 41100 fluorescence intensity (a.u.)
- TGCCCAGCTTTTCCAAATGCGTGCTCAGATGCAGAAGCTGCGGAGTCACCTAGTGCAG — lower, 3420 fluorescence intensity (a.u.)
- ATTCAGAGTACTAGCTAGTACGTGTATATAGATCGATATACGGAGTCACCTAGTGCAG — lower, 3360 fluorescence intensity (a.u.)
- CTCCGATGGCCGGAGCGACGCCTCCGCAGCCTTCGGGGTTCGGAGTCACCTAGTGCAG — lower, 3920 fluorescence intensity (a.u.)
- CAATGCCATTCCGCGGAATGACGTCGTTAAAATGCCACTGCGGAGTCACCTAGTGCAG — lower, 4640 fluorescence intensity (a.u.)
- CTTTGCCCGCCAAATGGCACGCCACCGTAATTAACCCCGACGGAGTCACCTAGTGCAG — lower, 3190 fluorescence intensity (a.u.)
- GTACGGCACGCTACTATAGTACACGCTCCTACAGCTGACTCGGAGTCACCTAGTGCAG — lower, 4090 fluorescence intensity (a.u.)
- TGCACGATTACATGGTGACCAAGCAAACCAAGGAGTACGTCGGAGTCACCTAGTGCAG — lower, 3380 fluorescence intensity (a.u.)
- CAATAGATTGCGTCATCTCTGTTCATTAGCAGTAGTTTTGCGGAGTCACCTAGTGCAG — higher, 16100 fluorescence intensity (a.u.)
- CCTATTTGATGTGGCTTTTCGCCCTTCCTTTTAACCGTGTCGGAGTCACCTAGTGCAG — lower, 3430 fluorescence intensity (a.u.)
- CAGTAAAAGAAATGTCTTAACTGTGTCATCATTTGATTAACGGAGTCACCTAGTGCAG — lower, 4240 fluorescence intensity (a.u.)
- TGTAGATCTGTCGATCTCTGTCATCAACGGCAACTCCGGTCGGAGTCACCTAGTGCAG — lower, 3360 fluorescence intensity (a.u.)

— article PMC7819943, “Rice protein-binding microarrays: a tool to detect cis-acting elements near promoter regions in rice”
